# According to the supplement of paper PMC4604168 (melanoma cell lines):
# The list shows a part of the results. Single values are uncertain, as repeats are few or missing.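 Imaging used 1,536-well plates; nuclei positive for cleaved PARP by antibody were divided by total DNA-stained nuclei to yield the apoptosis fraction. Doses for screening kept most cells viable, and cell lines differ markedly in resting and induced cleaved-PARP levels.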
# Test system: CBRC034 (line from a melanoma biopsy)
# Assay: cleaved PARP positive nuclei fraction relative to DMSO control; melanoma cells; higher = more apoptosis
# Conditions: library dose: low library concentration; 72 h
row,Compound,cleaved PARP positive nuclei fraction [%]
1,"O=C(CCCCCCC(=O)Nc1ccccc1)NO [vorinostat] + CCCCCCCCCCCC1=C(O)C(=O)C=C(O)C1=O [Embelin] (first compound 0.08 µM, partner dose 1.2 µM)",47.7
2,"Cn1nnc2c(C(N)=O)ncn2c1=O [temozolomide] + Cn1cc(/C=C2\C(=O)Nc3cccnc32)c2ccccc21 [GW441756] (first compound 2 µM, partner dose 0.4 µM)",87
3,"Nc1cccc2c1CN(C1CCC(=O)NC1=O)C2=O (stereo unspecified) [lenalidomide] + COc1cc2ncnc(Nc3ccc(Oc4ccccc4)cc3)c2cc1OC [SrcI1] (first compound 1 µM, partner dose 2 µM)",85.5
4,"COc1cc(Nc2ncc(F)c(Nc3ccc4c(n3)NC(=O)C(C)(C)O4)n2)cc(OC)c1OC [Tamatinib] + CCc1ccc(CCOc2ccc(CC3SC(=O)NC3=O)cc2)nc1 [pioglitazone] (first compound 0.4 µM, partner dose 2 µM)",51.8
5,"Cc1nc(Nc2ncc(C(=O)Nc3c(C)cccc3Cl)s2)cc(N2CCN(CCO)CC2)n1 [dasatanib] + COc1cc(N2CCC(N3CCN(C)CC3)CC2)ccc1Nc1ncc(Cl)c(Nc2ccccc2S(=O)(=O)C(C)C)n1 [NVP-TAE684] (first compound 0.004 µM, partner dose 0.08 µM)",366
6,"Cn1c(Nc2ccc(C(F)(F)F)cc2)nc2cc(Oc3ccnc(-c4ncc(C(F)(F)F)[nH]4)c3)ccc21 + Cc1cc([N+](=O)[O-])ccc1NS(=O)(=O)c1cc(Cl)ccc1Cl [FH535] (first compound 0.08 µM, partner dose 1 µM)",564
